According to publication PMC12167799, “The role of human Shu complex in ATP-dependent regulation of RAD51 filaments during homologous recombination–associated DNA damage response” (The Journal of Biological Chemistry, 2025):
No constants are given. Whether binding was seen depends on the method and setting. Binding seen in cells or lysates may run through a third protein. Binding can be weak; no strength is given.

Columns and labels:
Assay in all cases: SEC; co-purification: 6xHis-TEV-SWSAP1 and untagged hSWS1 co-expressed in insect cells, Ni-HiTrap FF, tag cleaved, then gel filtration on Superdex 200 10/300 GL and SDS-PAGE
[1] = molecular target: human SWSAP1 D96A (Walker B mutant) (human)
[2] = molecular target: human SWSAP1 K18A (Walker A mutant) (human)
[3] = molecular target: human SWS1-associated protein 1 (SWSAP1), wildtype (human)

- binding [1]: binds
- binding [2]: binds
- binding [3]: binds
B1: human SWS1 (protein, UniProt Q19AV6 1-140)
chain: MAVVLPAVVEELLSEMAAAVQESARIPDEYLLSLKFLFGSSATQALDLVDRQSITLISSPSGRRVYQVLGSSSKTYTCLASCHYCSCPAFAFSVLRKSDSILCKHLLAVYLSQVMRTCQQLSVSDKQLTDILLMEKKQEA
